# Measurements reported in publication PMC12167490.
# System: SIRT6-WT
# Test: EMSA
# Settings: 50 nM DNA, larger shift beginning at 2.0 uM SIRT6, EMSA: 50 mM Tris pH 7.5, 20 mM NaCl, 2 mM MgCl2, 2 mM DTT, RT 15 min, 10 ul, 5% TBE gel, recombinant protein, protein details: tag cleaved with ULP1 (untagged), label: none (ethidium bromide stain)
sequence,measurement,value
CTACTGGTACGGCAGACAGGATGTATATATCTGACACGTGCCTGGAGACTAGGGAGTAATCCCCTTGGCGGTTAAAACGCGGGGGACAGCGCGTACGTGCGTTTAAGCGGTGCTAGAGCTGTCTACGACCAATTGAGCGGCCTCGGCACCGGGATTCTCCAGTATTCGAGGCCGTTC (double strand) [ds601 DNA (177 bp)],binding result,binds

# The exact form of at least one protein or probe is not confirmed.
